Among the data in PMC6430605 are binding values, retold here.

Sequences of proteins named here, by UniProt entry; tags and fusion partners are left off.
UniProt Q01101: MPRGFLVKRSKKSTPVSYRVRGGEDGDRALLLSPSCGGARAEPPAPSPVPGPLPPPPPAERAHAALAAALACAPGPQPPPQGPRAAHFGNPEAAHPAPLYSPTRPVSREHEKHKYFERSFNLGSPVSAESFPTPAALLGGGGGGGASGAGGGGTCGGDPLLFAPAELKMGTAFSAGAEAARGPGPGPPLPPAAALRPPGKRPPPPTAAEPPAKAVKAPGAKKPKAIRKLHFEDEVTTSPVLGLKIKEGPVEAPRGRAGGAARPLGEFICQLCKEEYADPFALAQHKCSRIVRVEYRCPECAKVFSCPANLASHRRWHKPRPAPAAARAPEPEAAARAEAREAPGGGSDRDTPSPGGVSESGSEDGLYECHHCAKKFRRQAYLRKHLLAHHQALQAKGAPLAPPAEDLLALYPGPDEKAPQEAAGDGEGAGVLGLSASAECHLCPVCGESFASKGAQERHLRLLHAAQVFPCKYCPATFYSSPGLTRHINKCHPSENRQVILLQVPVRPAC
UniProt P30052: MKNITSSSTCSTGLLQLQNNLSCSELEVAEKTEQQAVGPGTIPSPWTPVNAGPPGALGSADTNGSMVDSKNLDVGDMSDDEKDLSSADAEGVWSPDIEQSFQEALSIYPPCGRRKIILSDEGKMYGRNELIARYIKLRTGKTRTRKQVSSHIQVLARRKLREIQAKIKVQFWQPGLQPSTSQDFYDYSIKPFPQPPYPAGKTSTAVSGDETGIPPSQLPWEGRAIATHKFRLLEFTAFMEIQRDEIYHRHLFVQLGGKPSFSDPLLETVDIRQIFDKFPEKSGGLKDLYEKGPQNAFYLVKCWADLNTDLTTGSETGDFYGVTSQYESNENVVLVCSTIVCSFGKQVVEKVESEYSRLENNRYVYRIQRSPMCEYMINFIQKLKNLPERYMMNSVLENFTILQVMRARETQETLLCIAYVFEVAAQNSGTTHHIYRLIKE
UniProt P46937: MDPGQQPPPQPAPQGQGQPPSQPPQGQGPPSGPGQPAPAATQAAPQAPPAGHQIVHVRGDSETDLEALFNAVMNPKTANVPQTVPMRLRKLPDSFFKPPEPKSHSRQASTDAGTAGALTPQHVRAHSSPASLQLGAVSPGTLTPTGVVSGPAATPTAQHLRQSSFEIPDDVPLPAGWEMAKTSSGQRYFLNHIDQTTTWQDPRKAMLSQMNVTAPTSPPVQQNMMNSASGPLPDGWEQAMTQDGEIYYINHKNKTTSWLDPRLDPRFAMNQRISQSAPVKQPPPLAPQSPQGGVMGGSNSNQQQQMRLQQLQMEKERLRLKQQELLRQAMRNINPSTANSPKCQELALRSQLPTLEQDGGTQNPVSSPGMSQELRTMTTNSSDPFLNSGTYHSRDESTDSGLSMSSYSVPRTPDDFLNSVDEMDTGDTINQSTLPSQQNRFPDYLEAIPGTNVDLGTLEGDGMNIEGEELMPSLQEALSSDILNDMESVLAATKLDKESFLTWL

In test [1] the target is Insulinoma-associated 1 (INSM1) (human) (UniProt Q01101). Put plainly: co-IP; 293T cells expressing the indicated constructs, IP by anti-FLAG, pairwise.
For test [2] the target is unchanged. Put plainly: co-IP; 293T cells expressing INSM1 and YAP, with TEAD1 co-expressed, IP by anti-FLAG.
Another test deals with Myc-Sd (Drosophila) (UniProt P30052). Put plainly: co-IP; Drosophila S2R+ cells transfected with epitope-tagged constructs, IP by anti-FLAG.

These are yes or no findings as the source states them, for the method shown. In cells and extracts the contact can be indirect. Some results given as binding are weak or reduced against the parent protein; the word gives no strength. For part of these data: Where a sequence is shown, tags or fusion partners need not be part of it.

Consider YAP (from UniProt P46937 1-504), for which the binding result in test [1] was “binds weakly”; in test [2] it was “binds”.

B1: HA-Yki (protein, UniProt Q45VV3 1-395)
chain: MLTTMSASSNTNSLIEKEIDDEDMLSPIKSNNLVVRVNQDTDDNLQALFDSVLNPGDAKRPLQLPLRMRKLPNSFFTPPAPSHSRANSADSTYDAGSQSSINIGNKASIVQQPDGQSPIAAIPQLQIQPSPQHSRLAIHHSRARSSPASLQQNYNVRARSDAAAANNPNANPSSQQQPAGPTFPENSAQEFPSGAPASSAIDLDAMNTCMSQDIPMSMQTVHKKQRSYDVISPIQLNRQLGALPPGWEQAKTNDGQIYYLNHTTKSTQWEDPRIQYRQQQQILMAERIKQNDVLQTTKQTTTSTIANNLGPLPDGWEQAVTESGDLYFINHIDRTTSWNDPRMQSGLSVLDCPDNLVSSLQIEDNLCSNLFNDAQAIVNPPSSHKPDDLEWYKIN
For B1, the binding entry in the test with Myc-Sd (Drosophila) is “binds”.
